Publication PMC9203013
Results are given in words; binding and its absence hold for the method and conditions named. Some results given as binding are weak or reduced against the parent protein; the word gives no strength. Tags and fused reporters may be left off the sequences shown.

Sequences of proteins named here, by UniProt entry; tags and fusion partners are left off.
UniProt P92177: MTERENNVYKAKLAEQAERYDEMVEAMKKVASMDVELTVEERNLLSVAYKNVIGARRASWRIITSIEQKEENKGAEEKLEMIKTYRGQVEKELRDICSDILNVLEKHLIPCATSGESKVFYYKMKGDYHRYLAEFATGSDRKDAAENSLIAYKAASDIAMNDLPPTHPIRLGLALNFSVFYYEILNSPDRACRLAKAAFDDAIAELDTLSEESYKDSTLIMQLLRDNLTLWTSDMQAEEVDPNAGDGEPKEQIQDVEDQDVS

B1: MBP-Borealin(113–221) with S161A mutation, phosphorylated by PKD2 (domain or fragment, UniProt Q9VLD6 113-221)
chain: SRNDEEDSSIGASGGSILAAHTGSLLRSTKAMRTPGPLHSARARRARRARSACGDLNILHSAKPPSISSSSSSSRNSRSKLRTPMASRAKAFSADRTPLKQKQMRSGSP
modifications: phosphorylated in vitro by human PKD2; phosphoserine at S163
B2: MBP-Borealin(113–221) with S161A mutation, treated with Aurora B and PKD2 (domain or fragment, UniProt Q9VLD6 113-221)
chain: B1 chain
modifications: incubated in vitro with human Aurora B and human PKD2; phosphoserine at S163

Biological target: GST-14-3-3ε (Drosophila melanogaster) (UniProt P92177)
Assay: pull-down; MBP-Borr(113–221) fragments after kinase incubation (30°C, phosphorylation buffer with BSA) mixed with 20 μg GST-14-3-3ε in Pulldown buffer (25 mM Tris-Cl pH 7.6, 150 mM NaCl, 0.5% Triton X-100, 0.3 mM Na3VO4), 30 min on ice, then glutathione beads 1 h at 4°C; western blot with an MBP antibody; both purified

| Binder | binding |
| --- | --- |
| B1 | binds |
| B2 | binds |
